Cyclisation yield data for 13 substances are collected here from patent publication US11136349 (dated 2021).

This data set is described as follows: general procedure: Fmoc solid-phase peptide synthesis; 2-chlorotrityl chloride resin (100-200 mesh, 1.2 meq/g, crosslinked polystyrene); HBTU/DIPEA. The following applies: cyclisation step, HPLC-determined reaction yield.
In turn, “cyclo-[Aba-Ala-Leu-Pbe-Lys(Boc)-Pro-Ala-Phe-Ala-Leu-Pro-Glu(OBu)-Leu-Phe-VaI]” registered a cyclisation yield of 60%.

“cyclo-[Aba-Ala-Phe-Leu-Pro-Ala-Thr(tBu)-Val-Tyr(tBu)-Leu]” registered a cyclisation yield of 64%.

With cyclo-[Aba-Phe-(Me)Ala-Tyr(tBu)-Val], the cyclisation yield is recorded as 66%.

In turn, cyclo-[Aba-Phe-Gln(Trt)-Leu-Lys(Boc)] returned a cyclisation yield of 94%.

For cyclo-[Aba-Phe-Leu-Ai-Phe(4-Br)], the cyclisation yield stood at 48%.

For cyclo-[Aba-Phe-Leu-Ala-His(Trt)], the cyclisation yield worked out at 65%.

Regarding cyclo-[Aba-Phe-Met-Leu-Glu(OtBu)], the cyclisation yield is reported as 40%.

Regarding cyclo-[Aba-Phe-Pra-Ala-Lys(Boc)], the cyclisation yield is given as 82%.

In turn, cyclo-[Aba-Val-Thr(tBu)-Phe-Trp(Boc) registered a cyclisation yield of 56%.

Consider cyclo-[Aha-Phe-Arg(Bo)2-Ser(tBu)-Ala], for which the cyclisation yield was 59%.

For the substance cyclo-[Ahda-Phe-Leu-Ala-Phe], the cyclisation yield came out at 38%.

In turn, cyclo[(3-Ac)pa-Phe-Leu-Ala-Phe] registered a cyclisation yield of 48%.

As for cyclo[(3-Aep)pa-Phe-[Leu-Aa-Phe], the cyclisation yield came to 49%.
